The target in the data set is T1, WRKY40 (UniProt A0A7S5EBG7).
T1 sequence (looked up, limits assumed): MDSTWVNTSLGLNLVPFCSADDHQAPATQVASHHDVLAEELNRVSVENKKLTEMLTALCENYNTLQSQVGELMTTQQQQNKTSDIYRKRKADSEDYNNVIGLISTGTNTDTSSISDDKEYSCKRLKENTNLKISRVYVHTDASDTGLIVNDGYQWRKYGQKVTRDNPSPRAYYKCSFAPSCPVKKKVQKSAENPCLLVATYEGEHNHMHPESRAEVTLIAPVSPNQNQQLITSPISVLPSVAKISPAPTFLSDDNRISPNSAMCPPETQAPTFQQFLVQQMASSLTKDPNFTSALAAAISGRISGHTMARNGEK
The experiment in a line: EMSA. The note with it: cold competitor reduces binding; EMSA: oligos diluted in ddH2O, 60 min at 25 °C with protein; 6% native PAGE, 0.5x TBE, 4 °C, 100 V; binding buffer, salt and pH not stated; recombinant protein; label: biotin 5' and 3'.

For at least one entry, the source does not settle the construct or the ends of the probe. Protein sequences can lack the tags named with them.

For the sequence “ACAATTCACTCTTGACTTCCAGATAGACTTT (double strand) [LRRpro W-box probe]”, the binding result is “binds”.

The values above are taken from publication PMC11881497.
